Values from PubChem BioAssay AID1259286 (Sanger Institute, 2017).
Aim: 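Kinases whose loss adds to targeted drug killing of colorectal cancer cells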 (primary screen). System: NCI-H630 human colorectal cancer cells. Knock-down reagent: siRNA pool against human genes. Treatment: anchor drugs BYL719 at 1 µM, cetuximab at 5 µg/ml or trametinib at 10 nM, or DMSO vehicle alone; exposure time not given. Measured: 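Replicate-averaged viability as a fraction of non-targeting control, knock-down-alone robust z-score, and per-drug synergy scores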. Reading the numbers: viability z-score, knock-down alone: higher = more viable cells, weaker knock-down effect. Rule for the call: 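a gene is called essential when its knock-down-alone viability robust z-score is below -3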. Meaning of the calls: active = essential when knocked down alone; inactive = not essential alone.
This is an unselected part of 794 reagents. In the full data, 17 (2.1%) are marked active. 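Calls use knock-down alone only; synergy above 0.15 marked separately; viability seems capped at control level; exposure time not given.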 Further read-outs or replicates are left out here. The record does not give: the amount of reagent, the time to read-out.

{"target gene": "ROR1", "viability z-score, knock-down alone": -0.404, "Call": "inactive"}
{"target gene": "CDK13", "viability z-score, knock-down alone": 0.464, "Call": "inactive"}
{"target gene": "DCLK3", "viability z-score, knock-down alone": 0.464, "Call": "inactive"}
{"target gene": "CSNK2B", "viability z-score, knock-down alone": 0.464, "Call": "inactive"}
{"target gene": "FLT1", "viability z-score, knock-down alone": 0.464, "Call": "inactive"}
{"target gene": "FGFR2", "viability z-score, knock-down alone": 0.464, "Call": "inactive"}
{"target gene": "EIF2AK2", "viability z-score, knock-down alone": 0.438, "Call": "inactive"}
{"target gene": "LATS2", "viability z-score, knock-down alone": 0.464, "Call": "inactive"}
{"target gene": "PAK4", "viability z-score, knock-down alone": 0.464, "Call": "inactive"}
{"target gene": "PIP5KL1", "viability z-score, knock-down alone": 0.464, "Call": "inactive"}
{"target gene": "GSK3B", "viability z-score, knock-down alone": 0.464, "Call": "inactive"}
{"target gene": "ROCK1", "viability z-score, knock-down alone": 0.464, "Call": "inactive"}
{"target gene": "CSK", "viability z-score, knock-down alone": 0.464, "Call": "inactive"}
{"target gene": "TSSK1B", "viability z-score, knock-down alone": -1.04, "Call": "inactive"}
{"target gene": "SIK3", "viability z-score, knock-down alone": 0.464, "Call": "inactive"}

Continued, starting with the last 3 of the part before.
{"target gene": "CSK", "viability z-score, knock-down alone": 0.464, "Call": "inactive"}
{"target gene": "TSSK1B", "viability z-score, knock-down alone": -1.04, "Call": "inactive"}
{"target gene": "SIK3", "viability z-score, knock-down alone": 0.464, "Call": "inactive"}
{"target gene": "DLG4", "viability z-score, knock-down alone": 0.0363, "Call": "inactive"}
{"target gene": "SRPK1", "viability z-score, knock-down alone": 0.464, "Call": "inactive"}
{"target gene": "NRK", "viability z-score, knock-down alone": 0.464, "Call": "inactive"}
{"target gene": "EPHA3", "viability z-score, knock-down alone": 0.342, "Call": "inactive"}
{"target gene": "PIP4K2A", "viability z-score, knock-down alone": -0.433, "Call": "inactive"}
{"target gene": "MAP3K2", "viability z-score, knock-down alone": 0.464, "Call": "inactive"}
{"target gene": "CTCF", "viability z-score, knock-down alone": 0.464, "Call": "inactive"}
{"target gene": "CKS2", "viability z-score, knock-down alone": 0.464, "Call": "inactive"}
{"target gene": "CDC42BPA", "viability z-score, knock-down alone": 0.464, "Call": "inactive"}
{"target gene": "PANK3", "viability z-score, knock-down alone": 0.464, "Call": "inactive"}
{"target gene": "CREBBP", "viability z-score, knock-down alone": -2, "Call": "inactive"}
{"target gene": "AK4", "viability z-score, knock-down alone": -1.98, "Call": "inactive"}
{"target gene": "GK2", "viability z-score, knock-down alone": 0.464, "Call": "inactive"}
